Reference: US20050084449A1
Results are given in words; binding and its absence hold for the method and conditions named. Some entries that bind do so weakly or less than the wild type.

Protein sequences, listed by entry. Tags and fused reporters are not part of them. Residues count along the entry.
UniProt Q96D42, residues 21-364: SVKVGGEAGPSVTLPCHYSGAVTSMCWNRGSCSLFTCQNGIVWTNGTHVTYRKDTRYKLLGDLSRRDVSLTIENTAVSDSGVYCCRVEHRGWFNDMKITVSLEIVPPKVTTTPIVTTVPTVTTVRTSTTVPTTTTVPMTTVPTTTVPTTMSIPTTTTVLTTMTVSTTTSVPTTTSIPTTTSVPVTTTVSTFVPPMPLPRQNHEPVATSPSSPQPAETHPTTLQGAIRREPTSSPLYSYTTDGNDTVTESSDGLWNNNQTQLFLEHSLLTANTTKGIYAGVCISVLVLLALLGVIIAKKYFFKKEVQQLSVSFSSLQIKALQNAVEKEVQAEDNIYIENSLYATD

Assays:
[1] = biological target: T1, TIM-1 peptide F) … (human); assay: ELISA on coated peptides
T1 sequence (peptide): PLPRQNHEPVAT

[2] = biological target: T2, TIM-1 peptide A) … (human); assay: ELISA on coated peptides
T2 sequence (peptide): PMPLPRQNHEPVAT

[3] = biological target: T3, TIM-1 peptide B) … (human); assay: ELISA on coated peptides
T3 sequence (peptide): PMPLPRQNHEPV

[4] = biological target: T4, TIM-1 peptide C) … (human); assay: ELISA on coated peptides
T4 sequence (peptide): PMPLPRQNHE

[5] = biological target: T5, synthetic peptide SEQ ID NO:105 (printed LPRQNHE) (human); assay: peptide ELISA, reactivity grade
T5 sequence (peptide): LPRQNHE

[6] = biological target: T6, synthetic peptide … (SEQ ID NO:98); assay: peptide ELISA, reactivity grade
T6 sequence (peptide): PMPAPRQNHE

[7] = biological target: T7, synthetic peptide … (SEQ ID NO:101); assay: peptide ELISA, reactivity grade
T7 sequence (peptide): PMPLPRANHE

[8] = biological target: T8, synthetic peptide … (SEQ ID NO:100); assay: peptide ELISA, reactivity grade
T8 sequence (peptide): PMPLPAQNHE

[9] = biological target: T9, synthetic peptide … (SEQ ID NO:103); assay: peptide ELISA, reactivity grade
T9 sequence (peptide): PMPLPRQNAE

[10] = biological target: T10, synthetic peptide SEQ ID NO:104 (printed PLPRQNHE) (human); assay: peptide ELISA, reactivity grade
T10 sequence (peptide): PLPRQNHE

[11] = biological target: T4, TIM-1 peptide C) … (human); assay: peptide ELISA, reactivity grade
[12] = biological target: T11, minimal epitope peptide LPRQNH (SEQ ID NO:97) (human); assay: peptide ELISA on shortened peptides
T11 sequence (peptide): LPRQNH

[13] = biological target: TIM-1 antigen, cell membrane-bound (on ACHN, CAKI-2, CAKI-1 renal cancer cells and polarized/activated human CD4+ T cells) (human) (UniProt Q96D42); assay: FACS on ACHN and CAKI-2 renal cancer cells
[14] = biological target: T2, TIM-1 peptide A) … (human); assay: ELISA on coated overlapping TIM-1 peptides

binding [1]: binds
binding [2]: binds
binding [3]: binds
binding [4]: binds
binding [5]: binds
binding [6]: binds
binding [7]: binds
binding [8]: binds
binding [9]: binds
binding [10]: binds
binding [11]: binds
binding [12]: binds
binding [13]: binds
binding [14]: binds
B1: anti-TIM-1 mAb 2.70 (antibody, V domains shown)
VH: QVQLVESGGGVVQPGRSLRLSCAASGFIFSRYGMHWVRQAPGKGLKWVAVIWYDGSNKLYADSVKGRFTISRDNSKNTLYLQMNSLRAEDTAVYYCARDYYDNSRHHWGFDYWGQGTLVTVSS
VL: DIVMTQTPLSLPVTPGEPASISCRSSRSLLDSDDGNTYLDWYLQKPGQSPQLLIYTLSYRASGVPDRFSGSGSGTDFTLKISRVEAEDVGVYYCMQRVEFPITFGQGTRLEIKR
